From US20200171022A1, “FLT3 INHIBITORS FOR IMPROVING PAIN TREATMENTS BY OPIOIDS” (INSERM (Institut National de la Santé et da la Recherche …, priority 2017, published 2020)

Test system: Male Sprague-Dawley rats
Experiment: Potentiation of morphine-induced analgesia and morphine-dose sparing, paw pressure test (Example 4)

CN1CC[C@]23c4c5ccc(O)c4O[C@H]2[C@@H](O)C=C[C@H]3[C@H]1C5 [morphine]
ED50 (Rattus norvegicus, read-out: ED50 of morphine (dose-response in AUC) with BDT001): 1.56 mg/kg
ED50 of morphine (dose-response in AUC) without BDT001 (morphine alone s.c.): 1.11 mg/kg
